Consider two molecules from article PMC4532856 (Nature Communications, 2015).

For one data set, the system named is GCGR. In words: Hydrogen/deuterium exchange (HDX) of ligand-bound wild-type GCGR.
The subject of data set [1] is H89C/H372C mutant GCGR and wild-type GCGR. In words: Differential HDX: apo H89C/H372C mutant GCGR vs peptide antagonist-bound wild-type GCGR. To be noted: peptide ligand-bound wild-type GCGR vs apo H89C/H372C mutant GCGR.
The test system of another data set is full-length GCGR. Put plainly: Electron microscopy of full-length GCGR-mAb23 Fab complex.
Setting [2] is: ligand-bound GCGR, D2O buffer, 4 °C, quench pH 2.4, pepsin digestion, LTQ Orbitrap MS, mean ± s.d. of three independent experiments.

With “des-His^1-[Nle^9-Ala^11-Ala^16]-glucagon-NH2”, in the data set on GCGR (setting [2]), the “HDX at 10 s, ECD, FLFEKWKL (31–38)” value stood at 3.8±5.4%; the “HDX at 10 s, ECL1, LRTRYSQKIGDDL (198–210)” value is listed as 27.2±2.2%; the “HDX at 10 s, ECL3, FVTDEHAQGTLRSAKL (367–382)” value is listed as 36.3±2.5%; the “HDX at 10 s, ICL2, ATLPERSF (256–263)” value is 56.3±3.3%. Besides, in the data set on GCGR (setting [2]), the “HDX at 10 s, Stalk, IEVQKEVAKM (128–137)” value worked out at 6.5±6.2% and the “HDX at 10 s, TM6, AKSTLTL (348–354)” value is 3.2±2.9%. Moreover, in the data set with GCGR (peptide-bound compared with small molecule (NNC2648)-bound GCGR, 10 s), the “HDX protection of ECD αA-helix (F31-L38), TM1 stalk (I128-M137) and ECL1 (L198-L210)” value is recorded as “increased protection (decreased exchange at 10 s)”. In addition, in data set [1], the “HDX change, ECD N-term and TM1 stalk” value is given as “large decreased exchange”; the “HDX change, ECL1” value was “smaller decreased exchange”.

B1: mAb23: monoclonal antibody that interacts with the ECD of GCGR; Fab kindly provided by Genentech (antibody, V domains shown)
VH: EVQLVESGGGLVQPGGSLRLSCAASGFNIYYNYIHWVRQAPGKGLEWVAEFSPYSGSTYYADSVKGRFTISADTSKNTAYLQMNSLRAEDTAVYYCARSAAIVDWYDYFKGFDYWGQGTLVTVSS
VL: DIQMTQSPSSLSASVGDRVTITCRASQSVSSAVAWYQQKPGKAPKLLIYSASSLYSGVPSRFSGSRSGTDFTLTISSLQPEDFATYYCQQYGSYLYTFGQGTKVEIK
Consider B1, for which the receptor conformation stabilized result with full-length GCGR (EM model) is listed as “stabilizes GCGR in an open conformation”. Moreover, the “GCGR domain interaction in EM map” value in the data set on full-length GCGR (negative stain EM) is reported as “interacts with the ECD, but does not interact with the 7TM domain of GCGR”.
